Values from PubChem BioAssay AID686938 (Drosophila RNAi Screening Center, 2013)

- Screen: 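Looking for CRAC channel components and the factors controlling them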 (primary screen)
- Cell system: Drosophila S2R+ cells
- Reagents: long dsRNA against Drosophila genes, about 0.25 µg dsRNA per well, roughly 10,000 cells
- Duration: 5 days of knock-down before the calcium assay
- Treatment: thapsigargin (SERCA pump blocker) to empty calcium stores; entry signal taken 4 min after adding it
- Measurement: 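Per-well fluo-4 fluorescence in two replicates, unnormalised, measured in resting cells and 4 min after store depletion by the SERCA blocker thapsigargin; ratio of the two present in few wells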
- Reading the numbers: calcium entry signal: higher = stronger calcium signal after store depletion; entry to resting ratio: higher = more calcium entry relative to resting level; resting calcium signal: higher = higher resting calcium signal
- Rule for the call: 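Hit if the duplicate-averaged plate z-score for entry over resting signal is under −3; wells with weak total dye signal (Fmax z < −2) or more than 5 off-targets removed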
- Meaning of the calls: active = strongly reduced calcium entry; inactive = no strong reduction
The screen tested about 23,000 reagents; this is an unselected part of those with a known target gene and a result. Over the whole deposit, 75 (0.33%) were called active. 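Raw plate signals without normalisation; calls rest on plate z-scores that were not deposited; ratio present for only 364 wells.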 Unmarked entries are inactive. Names joined by + are all predicted targets of the reagent. The record does not give: the dose of the treatment.

no.	target	DRSC id	calcium entry signal, replicate 1 (fluorescence units)	calcium entry signal, replicate 2 (fluorescence units)	entry to resting ratio	resting calcium signal, replicate 1 (fluorescence units)	resting calcium signal, replicate 2 (fluorescence units)
1	Ms	DRSC16041	4.22e7	2.70e7		1.83e7	1.30e7
2	CG12107	DRSC06102	2.69e7	2.27e7		1.10e7	1.13e7
3	CG4467	DRSC15585	3.76e7	5.04e7		2.08e7	2.09e7
4	CG6937 + btn	DRSC16917	3.22e7	4.73e7		1.53e7	1.84e7
5	CG10834	DRSC03693	5.10e7	5.30e7		2.47e7	2.28e7
6	CG17127	DRSC02581	3.00e7	4.57e7		1.41e7	1.91e7
7	Sf3b2	DRSC00619	1.50e7			1.25e7	
8	CG16772	DRSC02516	4.90e7	3.62e7		2.26e7	1.69e7
9	Timp	DRSC17082	3.99e7	4.81e7		1.76e7	2.11e7
10	SmydA-7	DRSC07340	4.22e7	4.10e7		1.93e7	1.87e7
11	CG30060	DRSC05419	3.15e7	4.36e7		1.52e7	1.88e7
12	CG15695	DRSC15117	4.34e7	4.68e7		5.96e7	2.07e7
13	Pkg21D	DRSC00772	4.52e7			2.16e7	
14	Tace	DRSC16340	2.91e7	4.18e7		1.37e7	1.84e7
15	CG32712	DRSC17820	3.30e6	2.50e7		3.38e6	1.20e7
16	Rab9Db + Rab9D + Rab9Fa + 1 more	DRSC17662	4.08e7	3.73e7		2.03e7	1.76e7
17	CheA7a	DRSC17965	3.43e7	3.55e7		1.71e7	1.65e7
18	Phae1	DRSC02554	3.44e7	2.65e7		1.54e7	1.27e7
19	EMRE	DRSC06686	5.05e7	5.57e7		2.03e7	2.54e7
20	Vha55	DRSC16896	3.92e7	5.34e7		2.32e7	3.03e7
21	CG31204	DRSC15106	3.48e7	4.04e7	2.2	1.56e7	1.69e7
22	Sox14	DRSC04656	3.85e7	4.85e7		1.98e7	2.16e7
23	CG8160	DRSC07086	3.74e7	5.28e7		1.93e7	2.76e7
24	CG8160	DRSC21434	4.90e7	3.54e7		2.73e7	1.73e7
25	CG32564	DRSC19933	3.84e7	3.45e7		2.11e7	1.55e7
26	CG34188	DRSC05549	4.34e7	4.71e7		2.05e7	2.13e7
27	CG14340	DRSC00370	4.29e7	4.28e7		1.89e7	1.74e7
28	mRpL19	DRSC16367	3.70e7	4.59e7		1.85e7	2.30e7
29	mRpL19	DRSC21618	4.13e7	3.14e7		2.23e7	1.50e7
30	CG17140 + CG17139	DRSC02585	2.40e7	3.60e7		1.09e7	1.45e7
31	CG17140 + CG17139	DRSC02586	2.56e7	3.81e7		1.26e7	1.58e7
32	pds5	DRSC06670	3.30e7	3.20e7		1.73e7	1.64e7
33	CG1703	DRSC19764	2.24e7	2.68e7		1.15e7	1.40e7
34	Spc105R	DRSC11663	2.27e7 (active)	3.20e7		1.61e7	1.97e7
35	Dark	DRSC05922	4.14e7	3.55e7		1.95e7	1.64e7
36	CG32846	DRSC08012	3.52e7	3.69e7		2.28e7	1.76e7
37	Akap200	DRSC01864	3.98e7			2.13e7	
38	CG12091	DRSC08251	3.46e7	3.81e7		1.73e7	1.79e7
39	Xrp1	DRSC15282	8.24e6	1.08e7		6.78e6	2.89e7
40	Xrp1	DRSC15283	1.46e7	1.16e7		8.40e6	3.09e7

Part of the list above, set out differently.
| target | DRSC id | calcium entry signal, replicate 1 (fluorescence units) | calcium entry signal, replicate 2 (fluorescence units) | entry to resting ratio | resting calcium signal, replicate 1 (fluorescence units) | resting calcium signal, replicate 2 (fluorescence units) |
| --- | --- | --- | --- | --- | --- | --- |
| CG15695 | DRSC15117 | 4.34e7 | 4.68e7 | – | 5.96e7 | 2.07e7 |
| Pkg21D | DRSC00772 | 4.52e7 | – | – | 2.16e7 | – |
| Tace | DRSC16340 | 2.91e7 | 4.18e7 | – | 1.37e7 | 1.84e7 |
